Patent US20080199939A1
Results are given in words; binding and its absence hold for the method and conditions named. Some results given as binding are weak or reduced against the parent protein; the word gives no strength.

By UniProt entry, the sequences of proteins in these tests, tags left out. Residues count along the entry.
UniProt P78310, residues 20-365: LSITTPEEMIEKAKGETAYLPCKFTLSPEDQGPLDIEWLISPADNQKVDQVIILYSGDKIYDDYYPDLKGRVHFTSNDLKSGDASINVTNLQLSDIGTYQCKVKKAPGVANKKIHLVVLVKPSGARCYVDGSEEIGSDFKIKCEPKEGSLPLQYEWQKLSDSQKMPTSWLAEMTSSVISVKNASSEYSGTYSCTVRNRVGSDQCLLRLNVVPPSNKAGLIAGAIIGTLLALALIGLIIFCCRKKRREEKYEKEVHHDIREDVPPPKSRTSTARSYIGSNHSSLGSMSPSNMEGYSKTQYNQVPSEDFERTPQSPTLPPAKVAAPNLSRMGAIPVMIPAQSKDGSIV

Molecular target: Coxsackievirus and Adenovirus Receptor (CAR) (UniProt P78310)
Assay: receptor recognition through the fiber knob; method not described, data not shown

B1: Ad5 fiber protein, on the original Ad5 based vector (protein)
chain: MKRARPSEDTFNPVYPYDTETGPPTVPFLTPPFVSPNGFQESPPGVLSLRLSEPLVTSNGMLALKMGNGLSLDEAGNLTSQNVTTVSPPLKKTKSNINLEISAPLTVTSEALTVAAAAPLMVAGNTLTMQSQAPLTVHDSKLSIATQGPLTVSEGKLALQTSGPLTTTDSSTLTITASPPLTTATGSLGIDLKEPIYTQNGKLGLKYGAPLHVTDDLNTLTVATGPGVTINNTSLQTKVTGALGFDSQGNMQLNVAGGLRIDSQNRRLILDVSYPFDAQNQLNLRLGQGPLFINSAHNLDINYNKGLYLFTASNNSKKLEVNLSTAKGLMFDATAIAINAGDGLEFGSPNAPNTNPLKTKIGHGLEFDSNKAMVPKLGTGLSFDSTGAITVGNKNNDKLTLWTTPAPSPNCRLNAEKDAKLTLVLTKCGSQILATVSVLAVKGSLAPISGTVQSAHLIIRFDENGVLLNNSFLDPEYWNFRNGDLTEGTAYTNAVGFMPNLSAYPKSHGKTAKSNIVSQVYLNGDKTKPVTLTITLNGTQETGDTTPSAYSMSFSWDWSGHNYINEIFATSSYTFSYIAQE
- binding: binds
